We go through 57 molecules from PubChem BioAssay AID488835 (Broad Institute, 2010).

Amino acid sequences for entries named in this document (tags omitted). Residues count along the entry.
UniProt Q9H3R0, 1-420 limits assumed: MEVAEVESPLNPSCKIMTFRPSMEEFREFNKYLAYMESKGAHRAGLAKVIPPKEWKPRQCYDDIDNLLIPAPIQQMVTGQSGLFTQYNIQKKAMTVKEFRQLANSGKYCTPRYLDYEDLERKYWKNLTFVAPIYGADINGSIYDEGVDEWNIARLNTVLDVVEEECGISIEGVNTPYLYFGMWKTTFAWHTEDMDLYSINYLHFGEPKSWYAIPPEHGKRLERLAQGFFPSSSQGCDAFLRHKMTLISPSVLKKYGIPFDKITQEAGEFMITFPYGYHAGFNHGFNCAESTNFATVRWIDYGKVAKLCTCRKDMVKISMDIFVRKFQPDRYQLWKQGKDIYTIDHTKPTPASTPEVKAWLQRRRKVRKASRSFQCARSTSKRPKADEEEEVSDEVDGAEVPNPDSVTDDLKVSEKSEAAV

The structures appear in SMILES notation. In all, about 1,400 compounds went through this assay and about 140 (10%) were called active.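 How the source made its calls: active means Half-maximal inhibitory dose from the fit at or below ten times the top valid tested dose; inconclusive means Invalid fit, or flat curve showing 30 to 70% inhibition; inactive means the rest.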 The list shows a part of the results, in another mix than the full data. Results with a measured potency or affinity are listed apart.

For this experiment, the target named is Lysine-specific demethylase 4C (Homo sapiens) (UniProt Q9H3R0). As to the kind of experiment: inhibition of JMJD2C H3K9me3 demethylation – biochemical, DELFIA europium, cherry-picked samples, dose response (AID 488835).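 Further: signal is the H3K9me2 demethylation product detected by a dimethyl-specific antibody.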 Particulars: GST-JMJD2C(1-420); at 6 µM (top of the series) unless noted.
`O=S(=O)(NCCSCc1ccc(Cl)c(Cl)c1)c1ccc2c(c1)OCCO2`: the activity change, negative = inhibition is inactive: 0.477%.

Take `CN(C)c1nc(C(=O)Nc2ccccc2)nc(N(C)C)n1`: the activity change, negative = inhibition was inactive: -7.21%.

Take `O=C(CCc1ccccc1)c1ccc2c(c1)OCCCO2`: the activity change, negative = inhibition was inactive: 8.16%.

For `COc1ccc(NS(=O)(=O)c2cccc(C(=O)OCC(=O)Nc3cc(C)on3)c2)cc1`, the activity change, negative = inhibition is inactive: 2.59%.

As for `Cc1onc(-c2ccccc2)c1C(=O)Nc1c(C)n(C)n(-c2ccccc2)c1=O`, the activity change, negative = inhibition is inactive: 1.03%.

For the molecule `COc1ccc(N(CC(=O)Nc2ccc(S(=O)(=O)N3CCCC3)cc2)S(C)(=O)=O)cc1OC`, the activity change, negative = inhibition was inactive: 1.62%.

Regarding `CC(=O)OCC1OC(OC2C[C@]3(C)C(CC(O)C4C([C@](C)(CCC=C(C)C)OC5OC(CO)C(O)C(O)C5O)CC[C@]43C)[C@@]3(C)CCC(O)C(C)(C)C23)C(O[C@@H]2OC(C)C(O)C(O)C2O)C(O)C1O` (some centres not stated), the activity change, negative = inhibition is inactive: 5.45%.

For the molecule `Cc1occc1-c1nnc(SCC(=O)c2cc3ccccc3oc2=O)o1`, the activity change, negative = inhibition was inactive: -0.848%.

For the molecule `COc1ccc(OC)c(C2/C(=C(\O)c3ccc(OC)c(Cl)c3)C(=O)C(=O)N2CCN(C)C)c1` (configuration not stated), the activity change, negative = inhibition is inactive: -4.79%.

Turning to `Cc1cccc(NC(=O)CSc2cccc3cccnc23)c1`, the activity change, negative = inhibition was inactive: 3.6%.

`O=C(Nc1ccccn1)c1ccc(C(=O)c2ccccc2)cc1`: the activity change, negative = inhibition was inactive: 6.74%.

On to `COCCn1c(C(C)C)nc2sc3ccccc3c(=O)c2c1=O`, for which the activity change, negative = inhibition was inactive: 5.81%.

In the case of `CCC(=O)N1CCc2cc(S(=O)(=O)CCC(=O)Nc3cccc(F)c3)ccc21`, the activity change, negative = inhibition is inactive: -1.52%.

For `CCc1ccc(NC(=O)C/C(C)=N/NC(=O)COc2ccc(C)cc2Br)cc1`, the activity change, negative = inhibition was inactive: 1.72%.

As to `Cc1ccccc1NC(=O)C1CC(=O)OC12CCOC(C)(C)C2` (configuration not stated), the activity change, negative = inhibition was inactive: 3.41%.

On to `Cc1ccc(C(=O)Oc2csc(=S)n2C(=O)c2ccc(C)cc2)cc1`, for which the activity change, negative = inhibition is inactive: 14.2%.

As to `O=c1cnnc(Nc2ccccc2)[nH]1`, the activity change, negative = inhibition is inactive: 4.31%.

For `COc1ccc(CN2CCNC(=O)C2CC(=O)NCc2csc(C(C)C)n2)c(OC)c1` (configuration not stated), the activity change, negative = inhibition was inactive: -5.09%.

For the molecule `COc1ccc(CCNCCN2CCOCC2)cc1`, the activity change, negative = inhibition is inactive: -10.6%.

Consider `CCc1ccc(CCC(=O)Nc2sc3c(c2C#N)CCCC3)o1`, for which the activity change, negative = inhibition is inactive: -0.132%.

For the molecule `COc1ccc2cc(Br)ccc2c1CC(=O)NCCCN1CCOCC1`, the activity change, negative = inhibition is inactive: 7.11%.

Regarding `CC(=O)c1nnn(-c2nc(N3CCCC3)nc(N(c3ccccc3)c3ccccc3)n2)c1C`, the activity change, negative = inhibition was inactive: -0.754%.

Regarding `O=C(NC1CCCCC1)NC1C2CC3CC(C2)CC1C3` (configuration not stated), the activity change, negative = inhibition is inactive: 3.19% [at 1.6 µM].

With `COc1ccc(C2CC(=O)C=C(NNS(=O)(=O)c3ccc(C)cc3)C2)cc1` (configuration not stated), the activity change, negative = inhibition is inactive: 0.334%.

As to `CCC(=O)Nc1ccc(NC(=O)Cc2ccccc2)cn1`, the activity change, negative = inhibition was inactive: -1.91% [at 1.6 µM].

Turning to `Cc1cc(C(F)(F)F)nn1C(=O)c1cccnc1Cl`, the activity change, negative = inhibition was inactive: -8.2%.

For the molecule `CC(=O)Nc1ccc2nc(CN3CCC(CO)(CCc4ccccc4)CC3)ccc2c1`, the activity change, negative = inhibition is inactive: -2.53%.

On to `COc1ccccc1CNC(=O)c1cc(-c2ccccc2)nn1CC1CC(c2cccnc2)=NO1` (configuration not stated), for which the activity change, negative = inhibition was inactive: -1.26%.

With `Cc1cccc(N2C(=O)C3C4C=CC(C4)C3C2=O)c1` (configuration not stated), the activity change, negative = inhibition was inactive: 9.08%.

On to `CN(C)/C=C1\C(=O)NN=C1c1ccccc1`, for which the activity change, negative = inhibition is inactive: -4.71%.

For `O=C(Cn1cnc2c(OCc3ccccc3)ncnc21)NCCN1CCOCC1`, the activity change, negative = inhibition is inactive: -2.74%.

For the molecule `CC[C@@]1(C(=O)OC)N[C@H](CN(C)C(=O)Nc2ccc(Cl)cc2)[C@@H]2C(=O)N(Cc3ccccc3)C(=O)[C@@H]21`, the activity change, negative = inhibition is inactive: 2.99%.

Consider `CCn1c(SCC(=O)c2ccc(C)cc2)nnc1-c1ccoc1C`, for which the activity change, negative = inhibition is inactive: 3.07%.

As for `O=C(Nc1ccccc1N1CCCCC1)c1cccc(F)c1`, the activity change, negative = inhibition was inactive: -3.69%.

As for `CN(C)CCN(C(=O)/C=C/c1cccs1)c1nc2ccc(F)cc2s1`, the activity change, negative = inhibition was inactive: 5.54%.

For `CCOc1ccc(NC(=O)NC(=O)N(C(C)C)S(C)(=O)=O)cc1`, the activity change, negative = inhibition is inactive: -0.645%.

For `CCO[C@@H]1OC(C(=O)NC2CC2)=C[C@H](c2c[nH]c3ccccc23)[C@H]1CCCO`, the activity change, negative = inhibition was inactive: -4.07%.

In the case of `CCCCC(=O)Nc1ccccc1N1CCN(c2ccc(F)cc2)CC1`, the activity change, negative = inhibition is inactive: -2.31%.

Regarding `CCn1c(=O)c(C(=O)NCCc2ccc(Cl)cc2)c(O)c2ccccc21`, the activity change, negative = inhibition is inactive: -3.1%.

Consider `CC1CCCC(NC(=O)COC(=O)c2ccc(N(C)C)cc2)C1C` (configuration not stated), for which the activity change, negative = inhibition is inactive: 4.96%.

On to `CN(C)/C=C1/Nc2ccccc2C1=O`, for which the activity change, negative = inhibition is inactive: 5.13%.

With `C[C@H](CO)N1C[C@H](C)[C@@H](CN(C)Cc2ccc(Cl)c(Cl)c2)Oc2c(NC(=O)c3ccncc3)cccc2C1=O`, the activity change, negative = inhibition was inactive: -4.99%.

Regarding `O=C(CN1C(=O)NC2(CCCC2)C1=O)Nc1nc(-c2ccccc2)cs1`, the activity change, negative = inhibition was inactive: -9.35%.

For `COC(=O)c1cc(S(=O)(=O)N2CCN(c3ccc(F)cc3)CC2)c[nH]1`, the activity change, negative = inhibition was inactive: 4.97%.

For the molecule `Cc1[nH]n(-c2ccccc2)c(=O)c1N=Nc1nccs1`, the activity change, negative = inhibition is inactive: -6.11%.

Take `Fc1ccc(NC(=S)Nc2ccc(Cl)cc2Cl)cc1`: the activity change, negative = inhibition was inactive: -3.58%.

Turning to `N#Cc1cnn(CC2CCCCC2)c1N`, the activity change, negative = inhibition was inactive: 6%.

Consider `O=C(c1cc2ccccc2oc1=O)N1CCN(CCc2ccccc2)CC1`, for which the activity change, negative = inhibition was inactive: -7.89%.

Take `O=c1c2c(nc3c(-c4cccc5ccccc45)c[nH]n13)CCC2`: the activity change, negative = inhibition was inactive: 5.22%.

Regarding `CCSCC1COC(c2cccn2Cc2ccc(C)cc2)=N1` (configuration not stated), the activity change, negative = inhibition was inactive: 3.44%.

With `COCCn1c(N)c(C(=O)NCC2CCCO2)c2nc3ccccc3nc21` (configuration not stated), the activity change, negative = inhibition is inactive: -0.291%.

As for `COc1ccc(S(=O)(=O)N(C)C[C@H]2Oc3ccc(NS(=O)(=O)c4cccs4)cc3CC(=O)N([C@H](C)CO)C[C@H]2C)cc1`, the activity change, negative = inhibition is inactive: 2.24%.

Take `Cc1cccn2c(=O)c(C(=O)NC3CC(C)CC(C)(C)C3)c(O)nc12` (configuration not stated): the activity change, negative = inhibition was inactive: -4.7%.

Turning to `N#Cc1cnc(NOCc2ccc(Cl)cc2)nc1`, the activity change, negative = inhibition was inactive: 9.12%.

Take `Cc1ccc(S(=O)(=O)N2CCN(C(=O)N3CCOCC3)CC2)cc1C`: the activity change, negative = inhibition is inactive: 6.26%.

For `C=CCn1c(N)c(-c2nc3ccccc3n2C)sc1=S`, the activity change, negative = inhibition was inactive: -2.32%.

`CCNC(=S)NC(=NCc1cccnc1)Nc1nc(C)cc(C)n1`: the activity change, negative = inhibition was inactive: -0.344%.
